Laboratory results as given in PubChem BioAssay AID540276 (National Center for Advancing Translational Sciences (NCATS), 2011).
Hit rate of the full screen: of about 300,000 compounds, about 5,400 (1.8%) were called active. Inconclusive results, whose numbers are uncertain, are shown with a selection of clear calls. Calls come from the whole dose curve; tested in HEK293 cells. Potencies beside an inconclusive call are fits to weak or partial responses and may not hold up.

Test: qHTS for inhibitors of binding or entry into cells for Marburg Virus
Conditions: Marburg virus pseudotyped entry inhibition, cell reporter; series mostly up to 37.8 µM
Potency is the fitted concentration of half-maximal effect.

Structure (SMILES)	Potency
Cc1ccccc1NC(=O)c1cc2sccc2n1Cc1ccc(F)cc1	inconclusive: 5.01 µM [inhibitor, full curve, poor fit]
Cc1ccc(-c2nc(CSCC(=O)N3CCN(C(=O)c4ccco4)CC3)c(C)o2)cc1	inactive
CC(C(=O)Nc1sc2c(c1C#N)CCCCC2)N1C(=O)c2ccccc2C1=O (stereo unspecified)	inconclusive: 20.6 µM [activator, single point]
O=C(NCC(c1cccnc1)N1CCN(c2ccccc2F)CC1)OCc1ccccc1 (stereo unspecified)	inconclusive: 10 µM [inhibitor, partial curve, poor fit]
COc1cc(C(=O)Nc2ccc3c(c2)Cc2ccccc2-3)cc(OC)c1OC	inconclusive: 0.231 µM [activator, single point]
N#CC(c1ccc(Cl)nn1)c1c(F)cccc1Cl (stereo unspecified)	inconclusive: 3.98 µM [inhibitor, full curve, poor fit]
CC(C)(C)C(=O)CSc1nc2ncc(Br)cc2[nH]1	inactive
CCn1c(C(=O)NCc2ccc(C)cc2)cc2sc(Cl)cc21	inactive
CC1CC(C)(C)CC2(C1)NC(=O)N(CC(=O)N(Cc1ccccc1)c1ccccc1)C2=O (stereo unspecified)	inconclusive: 1.12 µM [inhibitor, partial curve, poor fit]
COc1ccc(NC2=C(NC(C)=O)C(=O)c3ccccc3C2=O)cc1	inconclusive: 15.8 µM [inhibitor, single point]
COc1cc([N+](=O)[O-])cc(/C=N/NC(=O)c2ccc(NC(=O)c3ccc(C)cc3)cc2)c1O	active: 1.12 µM
COc1cnc(-c2ccccn2)nc1Oc1ccc(F)cc1F	inconclusive: 8.91 µM [activator, partial curve]
CCc1ccc(-n2c(SCc3nc(-c4cc(OC)ccc4OC)no3)nnc2-c2ccccc2)cc1	inconclusive: 10 µM [inhibitor, partial curve, poor fit]
COc1ccc(C2=CC(c3ccccc3Cl)n3nc(-c4ccc(C)cc4)nc3N2)cc1 (stereo unspecified)	inconclusive: 3.16 µM [inhibitor, partial curve, poor fit]
Cn1c(=O)n(C)c2cc(NS(=O)(=O)c3ccc(C(C)(C)C)cc3)ccc21	inconclusive: 17.8 µM [inhibitor, partial curve]
Cc1cccc(C)c1NC(=O)C1CC(=O)N(C(C)C)C1 (stereo unspecified)	inconclusive: 0.092 µM [activator, full curve, poor fit]
CCc1cccc(C)c1NC(=S)N1CC2CC(C1)c1cccc(=O)n1C2 (stereo unspecified)	inconclusive: 8.91 µM [activator, partial curve, poor fit]
OCCN1CCN(CC(O)COc2ccc(C34CC5CC(CC(C5)C3)C4)cc2)CC1 (stereo unspecified)	inconclusive: 8.91 µM [inhibitor, partial curve, poor fit]
O=[N+]([O-])c1ccc(N2CCC(O)CC2)nc1	inconclusive: 5.62 µM [inhibitor, single point]
O=C(NC1CCCCCC1)c1c2c(nc3ccccc13)CCN(Cc1ccccc1)C2	inconclusive: 25.1 µM [inhibitor, partial curve]
COc1ccc(CCNC(=O)COc2nncc3ccccc23)cc1	inconclusive: 3.55 µM [activator, partial curve, poor fit]
O=C(Oc1ccc(N(C(=O)c2ccncc2)S(=O)(=O)c2ccc(F)cc2)cc1)c1ccncc1	inactive

Structure (SMILES)	Potency
CCCCC(=O)Nc1sc2c(c1C#N)CC(C)(C)OC2	inconclusive: 10.3 µM [activator, partial curve, poor fit]
COc1ccc(-c2csc3ncnc(N4CCN(c5ccccc5Cl)CC4)c23)cc1	inconclusive: 35.5 µM [inhibitor, single point]
COc1ccccc1NC(=O)c1ccc(NC(=O)CN(C)Cc2ccccc2F)cc1	inconclusive: 10 µM [inhibitor, partial curve, poor fit]
O=C(O)CCC(=O)NNC(=O)c1cccc(Br)c1	inactive
O=C(CCCC(=O)Nc1ccccc1Br)N/N=C/c1c(F)cccc1Cl	inconclusive: 15.8 µM [inhibitor, single point]
Cc1ccc2nc(NCc3ccccc3)[nH]c2c1	inconclusive: 12.6 µM [inhibitor, single point]
Clc1ccc(CN2C3=NCCCN3c3ccccc32)c(Cl)c1	inconclusive: 7.94 µM [inhibitor, partial curve]
CC1(C)O[C@H]2OC([C@H](O)CON3C(=O)c4ccccc4C3=O)[C@H](O)[C@@H]2O1 (stereo partly specified)	inconclusive: 0.0094 µM [inhibitor, full curve, poor fit]
C[C@H]1Cc2c(-c3ccccc3)nc3c(c2CO1)CN(C(=O)c1cccnc1)CC3	inconclusive: 5.96 µM [inhibitor, single point]
CC1CCN(CC(=O)n2c3c(c4ccccc42)CCCC3)CC1	inconclusive: 25.9 µM [inhibitor, single point]
Cc1cccc(NC(=O)c2cnn(-c3ccccc3)c2C)c1C	inconclusive: 1.41 µM [activator, partial curve, poor fit]
CCC1Cc2c(nc(N)c3c(N)nc(N4CCCCC4)c(C#N)c23)O1 (stereo unspecified)	inconclusive: 35.5 µM [inhibitor, partial curve, poor fit]
Cc1noc(C)c1S(=O)(=O)Nc1ccc(C(=O)Nc2ccc(C(C)C)cc2)cc1	inactive
O=C(O)COn1c(-c2ccccc2)nc2ccc([N+](=O)[O-])cc21	inactive
COc1cccc(Nc2nnc(SCC3CCCCO3)s2)c1 (stereo unspecified)	inconclusive: 35.5 µM [activator, single point]
CCNc1ccc(C(=O)Nc2ccc3nc(C)sc3c2)cc1[N+](=O)[O-]	inactive
COc1ccc2oc(C(=O)OCC(=O)N(CCC#N)c3ccccc3)c(C)c2c1	inactive
O=C(COc1ccc([N+](=O)[O-])cc1)Nc1ccc(N2CCN(C(=O)c3ccco3)CC2)cc1	inactive
COc1ccnc(Oc2ccc(F)cc2)c1C(=O)N/C=N/OCc1ccc(F)cc1Cl	inconclusive: 29.1 µM [inhibitor, single point]
CCOC(=O)CSc1cc(C(F)(F)F)nc(-c2ccccn2)n1	inconclusive: 2.31 µM [activator, partial curve, poor fit]
COc1ccc(C(=O)Nc2cccc(/C(C)=N\NC(=O)c3ccoc3C)c2)cc1OC	inactive
COc1ccc(-c2cc(C#N)nc(N3CCN(c4ccccc4)CC3)n2)cc1	inconclusive: 17.8 µM [inhibitor, single point]

Structure (SMILES)	Potency
COc1ccc(OC)c(/C=C2\SC(N3CCCC(C)C3)=NC2=O)c1 (stereo unspecified)	inconclusive: 14.1 µM [inhibitor, partial curve, poor fit]
S=C(NC1CCCCC1)N1CCc2ccccc2C1	inconclusive: 18.4 µM [inhibitor, single point]
CN1C(=O)C(O)(CC(=O)c2cccnc2)c2ccccc21 (stereo unspecified)	inconclusive: 29.1 µM [inhibitor, single point]
CC(=O)OC[C@H]1O[C@H](CCON=C(C)CCN2CCc3nc(-c4ccccc4)c(-c4ccccc4)cc3C2)C=C[C@H]1OC(C)=O	inconclusive: 4.73 µM [inhibitor, single point]
Cc1cc(C=C2C(=O)c3ccccc3C2=O)c(C)n1C	inconclusive: 31.6 µM [inhibitor, single point]
O=C(NC1CCCCCCC1)c1ccc(F)cc1	inconclusive: 1.41 µM [activator, partial curve, poor fit]
CN(C)c1ccc(/C=C2/C(=O)NC(=O)N(CCc3ccc(F)cc3)C2=O)cc1	inactive
CCn1c(N2CCN(S(=O)(=O)c3ccccc3C(F)(F)F)CC2)nc2ccccc21	inactive
Cn1c2c(c(=O)n(C)c1=O)C(c1cccc(O)c1)CC(=O)N2 (stereo unspecified)	inactive
O=C(NCc1ccccc1F)c1ccc2ccccc2n1	inactive
COc1ccc(NC(=O)C(NC(=O)Cc2cccs2)c2ccc(OC)cc2)cc1 (stereo unspecified)	inactive
CC(=O)c1ccc(OC(C)C(=O)NCC2(N3CCOCC3)CCCCC2)cc1 (stereo unspecified)	inconclusive: 0.398 µM [activator, single point]
CCCS(=O)(=O)N1CCC(C(=O)NCCCOC(C)C)CC1	inactive
Cc1cc(Br)cc(C)c1NC(=O)c1cnc2ccccn2c1=O	inconclusive: 11.2 µM [activator, single point]
CCCOP(=O)(OCCC)c1nc(-c2ccccc2)oc1NCc1ccccc1	inconclusive: 11.2 µM [inhibitor, partial curve, poor fit]
Cc1ccc(S(=O)(=O)N2CCN(C)CC2)c2nsnc12	inactive
CC(CCc1ccccc1)NC(=O)CNC(=S)N(Cc1cccs1)C1CCCC1 (stereo unspecified)	inconclusive: 3.98 µM [inhibitor, partial curve, poor fit]
C/C=C/Cn1c(SCc2ccc(Cl)cc2)nc2c1c(=O)[nH]c(=O)n2C	inconclusive: 5.62 µM [inhibitor, single point]
COc1cc(/C=N/NC(=O)c2ccoc2C)cc(OC)c1O	inactive
COc1cccc(-c2nc(CS(=O)(=O)CC(=O)NCCCN3C(C)CCCC3C)c(C)o2)c1 (stereo unspecified)	inconclusive: 5.01 µM [activator, single point]
CCN(CC)c1ccc(NC(=O)CN(C)S(=O)(=O)c2cccc3nsnc23)c(C)c1	inconclusive: 8.91 µM [activator, partial curve, poor fit]
FC(F)(F)c1cnc(-c2cnc3c(-c4ccc(Cl)cc4)cnn3c2)c(Cl)c1	inactive
